# PubChem BioAssay AID1347426 (Functional Genomics Laboratory (NCATS/FGL), 2020)
# The campaign covered roughly 31,000 sequences. About 1,400 (4.5%) were called active.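 The calls were made as follows: active = median seed-adjusted z-score above 1 or below -1; inactive = the rest.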 The list shows a part of the results.
# Assay: Novel Modifiers of Survival Motor Neuron (SMN) Protein: Gene Identification via Genome-wide siRNA Screen;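 also: luminescence tracks full-length SMN protein made from the SMN2 reporter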
# Details: HEK293T SMN2-luciferase reporter, siRNA knockdown, 72 h; actives lie on both sides
# Outline: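 Steps: spot 1 pmol siRNA, add Lipofectamine RNAiMax in serum-free DMEM, seed HEK293T SMN2–luciferase reporter cells; incubate 72 h at 37 °C; add ONE-Glo; normalize luminescence to control siRNA, log10, MAD. Candidates: |MAD| > 1.0.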
row,Sequence,median seed-adjusted z-score
1,GGCCCAGAAUCGAAUCCAATT against MST1R,inactive: -0.278
2,GCAGCUACCUGAGUGUCAATT against ALX4,inactive: -0.121
3,GUAUAUCAGGGAAUUAGGATT against UROS,inactive: -0.248
4,GCUACUUCUCAGUUGCUAATT against NDST4,inactive: 0.426
5,GAAUGGAGCCCAAACAGAUTT against ACOT8,inactive: 0.0643
6,ACAUUGAGGUGAUGAGGUUTT against PPP1R12C,inactive: -0.535
7,GCAAUGGGAUACUAAGCUATT against PCDHAC1,inactive: -0.189
8,GACUGGUACCUCUUAAUCATT against HEATR6,inactive: 0
9,CCACUAAUGCAGAUCCUGUTT against CP,inactive: 0.188
10,GAGAGUACAUCGCACUGUATT against GOLGA2L1,inactive: 0.487
11,GAGUCGCACUUCUCCAGUATT against KCNA1,inactive: -0.277
12,GGCACGCGCUCUCAAUGAATT against ZC3H7B,inactive: -0.093
13,GCCCUUCUCCUGUAGCCUUTT against ZBTB32,inactive: 0.458
14,GCCUGAACGAGAAGGAUGATT against CHRNB1,inactive: 0.16
15,GGAAGUGAGUCAUCACAAATT against EIF4B,inactive: -0.374
16,GGCUUGGGCUAGUAAGGAUTT against MCM7,inactive: 0.0993
17,GGGUCUGGACUAUAGUGUATT against CASP4,inactive: -0.564
18,GAACUGUCAAAUGCACGUATT against TRIP11,inactive: 0.333
19,CCAUUGAUGGAGUCAGAUUTT against POLD2,inactive: 0.97
20,CGCGAGAUCCAGUACGUCATT against ATF5,inactive: 0.233
21,GGUGCGGUCCAUUAAUUGATT against TARSL2,inactive: 0.361
22,GCUGUGAAACGGACAUUGATT against NELL2,inactive: 0.0918
23,GAUGUCCUCGAGAUACUAATT against HAO1,inactive: 0.421

# As entered above:
# Entry of GCUGUGAAACGGACAUUGATT against NELL2 under median seed-adjusted z-score: inactive: 0.0918
# Entry of CGCGAGAUCCAGUACGUCATT against ATF5 under median seed-adjusted z-score: inactive: 0.233
# Entry of GUAUAUCAGGGAAUUAGGATT against UROS under median seed-adjusted z-score: inactive: -0.248
# Entry of GACUGGUACCUCUUAAUCATT against HEATR6 under median seed-adjusted z-score: inactive: 0

# (listing goes on)

row,Sequence,median seed-adjusted z-score
1,CGGCUGAGCGAGAAAAAGATT against ICAM4,inactive: -0.338
2,GCAUGGUUCAAACGAAGGATT against PTPN20B,inactive: -0.62
3,CCAACUGUGUGGCAGAACGTT against FKBP9L,inactive: 0.666
4,GUUAUCCUCUAAUUGAUAATT against B3GALNT1,inactive: 0.128
5,CCUCAAUGAUGUUGUCAAATT against VPS26B,inactive: -0.038
6,GGGAUACAUUUAAGCGCAATT against SYTL2,inactive: 0.211
7,AGACAGGAAGAGCUCAAUATT against MYL3,inactive: 0.212
8,GGAUGGGUAUGGUCAAGAUTT against CPT1A,inactive: 0.129
9,GGAAGGUGAUGACCGUCUATT against CIT,inactive: -0.0585
10,UGACUUCGACUAUCUCAAATT against AKT2,inactive: 0
11,GACCUUCCUAGUUUCCUGATT against GIPC1,inactive: 0
12,CCACCGUGAUUCAUCUUCUTT against CALML3,inactive: 0
13,GAUUGUGACUUUACAACUATT against ZNF711,inactive: 0.254
14,UGCUGCCUAUGGUCAGAUATT against BRUNOL4,inactive: 0
15,GGUGGACUCGGUGAAGACATT against SLC25A37,inactive: -0.0821
16,GGAUUAUCUGUUCUCCGUUTT against SCN1A,inactive: 0.031
17,GCAACAUCGUGGAUAAGUUTT against CDC25B,inactive: -0.0158
18,GGAUCAAUACAAAUACUAATT against ELTD1,inactive: 0.387
19,GGCUGUCUGCUGUACGAGATT against NEK6,inactive: -0.674
20,GUAUAGUCCAGACAAUUAUTT against RSHL3,inactive: -0.407
21,GGGUGAAGCUGUCAGACUUTT against PAK4,inactive: -0.742
22,CCCUGUUAGUAACGGCAAATT against OBFC2B,inactive: -0.061
23,GUUCCUCACUUAUCGCUAUTT against ADAMTSL3,inactive: -0.0419

row,Sequence,median seed-adjusted z-score
1,GCAGAAACAGACUAUCGAATT against SLK,inactive: 0.0479
2,CGACCUUCUGCGACUAUUUTT against PPP1CA,inactive: 0.115
3,GCUUUACAUGGUUUUCGAATT against CASK,inactive: -0.422
4,CCUGGAUCAUGCAAGAUUATT against MELK,inactive: -0.195
5,CCACAUCCUGGAAAACGAATT against GPR112,inactive: 0
6,CAUCGUUACUGUCAGAAGATT against DAXX,inactive: 0.349
7,CCUUUUUGCUGGACACUGUTT against PLEKHF1,inactive: 0.055
8,GUGUGGUAGCUAUUGACAATT against TSC22D1,inactive: 0
9,GAAACCAUUUUAUCUGGUATT against BCS1L,inactive: 0.167
10,GGACACUGUUGACCCAAAATT against P4HA3,inactive: 0
11,CCGUUACUGCAUCACCAAATT against MOV10,inactive: 0.0759
12,CAGGCAAAGUUCGACAGUATT against HEPH,inactive: -0.293
13,CAGCAGCUUUGUGACACCATT against GPR146,inactive: 0.405
14,CUGAAUUAGUUACUGCUUUTT against SLC24A5,inactive: -0.166
15,GCAUCAUCCUCCUAUCAGATT against DFFA,inactive: -0.494
16,GAUCAUUUCGAGAGAUGUATT against CRLS1,inactive: 0.555
17,GGCCUUUAUCGUCCUCUUUTT against LPCAT4,inactive: 0.338
18,UGAUCAAGAUCAUUCAGCATT against PIP5KL1,inactive: -0.819
19,CCGUGGAUGUUGUUGCUAUTT against WDR36,inactive: 0.00836
20,GUACAGUAAUUAGCCGAAATT against DCAKD,inactive: 0.0872
21,GGAAUUCGAAGACUAAUUATT against TWF1,inactive: -0.171
22,CAUUAUUCCUUCCAAACAATT against SGK3,inactive: 0.178
23,GGAUCGAUAAGUUCCGUUUTT against EPHX1,inactive: 0
